Measured values from the supplement of paper PMC12819154, “High-throughput peptide-centric local stability assay extends protein–ligand identification to membrane proteins, tissues and bacteria” (Nature Structural & Molecular Biology, 2025).
The list shows a part of the results. Most values lie at the level of the controls, where differences are scatter.

Protein sequences, listed by entry. Tags and fused reporters are not part of them. Lines headed by an entry give the natural chain unless they say otherwise; changes in a name come on top.
UniProt Q9NSD9: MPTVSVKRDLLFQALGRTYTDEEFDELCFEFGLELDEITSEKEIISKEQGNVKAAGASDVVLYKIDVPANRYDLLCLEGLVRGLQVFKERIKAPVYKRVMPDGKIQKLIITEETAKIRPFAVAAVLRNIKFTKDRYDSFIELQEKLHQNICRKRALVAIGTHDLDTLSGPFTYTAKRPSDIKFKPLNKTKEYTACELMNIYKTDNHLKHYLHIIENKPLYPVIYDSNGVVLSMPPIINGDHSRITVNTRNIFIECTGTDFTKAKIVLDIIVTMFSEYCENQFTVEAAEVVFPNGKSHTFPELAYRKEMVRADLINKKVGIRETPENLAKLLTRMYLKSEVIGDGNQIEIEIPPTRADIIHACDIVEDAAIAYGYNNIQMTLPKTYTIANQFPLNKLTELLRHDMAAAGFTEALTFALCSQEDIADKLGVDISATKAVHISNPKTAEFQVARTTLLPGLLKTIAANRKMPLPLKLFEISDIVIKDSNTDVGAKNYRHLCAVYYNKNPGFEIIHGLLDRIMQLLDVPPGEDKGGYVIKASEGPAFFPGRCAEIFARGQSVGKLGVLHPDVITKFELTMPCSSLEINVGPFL
UniProt Q9NSY0: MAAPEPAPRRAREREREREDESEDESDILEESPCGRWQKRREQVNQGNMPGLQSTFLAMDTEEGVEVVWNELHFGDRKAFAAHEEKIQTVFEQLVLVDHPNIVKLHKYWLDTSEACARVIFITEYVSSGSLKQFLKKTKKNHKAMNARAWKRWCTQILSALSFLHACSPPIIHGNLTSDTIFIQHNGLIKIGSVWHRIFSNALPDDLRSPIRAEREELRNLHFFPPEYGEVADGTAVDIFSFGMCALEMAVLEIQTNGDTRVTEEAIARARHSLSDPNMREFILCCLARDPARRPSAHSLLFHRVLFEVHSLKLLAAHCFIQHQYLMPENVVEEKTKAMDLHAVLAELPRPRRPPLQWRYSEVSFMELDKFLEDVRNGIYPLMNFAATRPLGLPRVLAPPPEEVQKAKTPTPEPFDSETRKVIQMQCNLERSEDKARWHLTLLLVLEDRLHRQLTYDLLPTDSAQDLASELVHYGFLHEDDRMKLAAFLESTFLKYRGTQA
UniProt Q9NQ55: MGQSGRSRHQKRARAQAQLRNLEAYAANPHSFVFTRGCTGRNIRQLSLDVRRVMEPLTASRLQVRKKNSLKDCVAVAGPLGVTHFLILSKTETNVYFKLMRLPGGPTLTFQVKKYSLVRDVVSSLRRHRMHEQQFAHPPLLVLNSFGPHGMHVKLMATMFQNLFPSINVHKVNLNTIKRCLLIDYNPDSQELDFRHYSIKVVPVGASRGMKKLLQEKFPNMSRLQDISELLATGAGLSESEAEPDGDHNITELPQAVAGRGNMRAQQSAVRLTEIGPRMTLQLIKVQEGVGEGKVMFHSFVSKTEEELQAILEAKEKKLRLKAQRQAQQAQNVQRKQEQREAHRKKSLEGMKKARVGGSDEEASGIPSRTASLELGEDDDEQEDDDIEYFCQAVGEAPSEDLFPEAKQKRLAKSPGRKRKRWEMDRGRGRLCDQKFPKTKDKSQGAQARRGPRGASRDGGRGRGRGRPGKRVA
UniProt Q9NVJ2: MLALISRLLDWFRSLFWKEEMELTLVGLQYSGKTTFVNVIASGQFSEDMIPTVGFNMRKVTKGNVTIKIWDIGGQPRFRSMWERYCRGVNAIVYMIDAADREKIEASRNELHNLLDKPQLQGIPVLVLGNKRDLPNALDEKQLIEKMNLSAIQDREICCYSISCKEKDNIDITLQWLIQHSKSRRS
UniProt Q9NPJ4: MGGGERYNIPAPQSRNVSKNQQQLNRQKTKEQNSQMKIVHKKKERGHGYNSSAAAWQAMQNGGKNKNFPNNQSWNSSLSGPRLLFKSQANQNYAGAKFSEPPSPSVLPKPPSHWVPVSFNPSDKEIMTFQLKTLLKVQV
UniProt Q9NRF8: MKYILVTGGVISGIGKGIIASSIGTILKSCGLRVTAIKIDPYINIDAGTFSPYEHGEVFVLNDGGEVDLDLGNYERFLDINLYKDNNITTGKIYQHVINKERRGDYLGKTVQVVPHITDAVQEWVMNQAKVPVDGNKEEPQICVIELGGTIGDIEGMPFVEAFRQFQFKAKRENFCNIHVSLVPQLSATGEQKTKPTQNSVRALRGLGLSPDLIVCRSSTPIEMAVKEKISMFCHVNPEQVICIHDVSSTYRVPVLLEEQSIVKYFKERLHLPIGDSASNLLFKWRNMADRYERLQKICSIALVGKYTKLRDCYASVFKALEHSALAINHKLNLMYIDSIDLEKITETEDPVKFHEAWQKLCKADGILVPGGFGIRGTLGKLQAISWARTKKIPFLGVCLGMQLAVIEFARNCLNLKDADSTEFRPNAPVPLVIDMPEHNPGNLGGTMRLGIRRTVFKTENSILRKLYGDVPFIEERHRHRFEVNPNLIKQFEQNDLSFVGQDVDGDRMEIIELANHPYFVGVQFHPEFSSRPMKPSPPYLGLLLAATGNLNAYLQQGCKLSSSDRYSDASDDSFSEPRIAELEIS
UniProt Q9NVR2, whole entry: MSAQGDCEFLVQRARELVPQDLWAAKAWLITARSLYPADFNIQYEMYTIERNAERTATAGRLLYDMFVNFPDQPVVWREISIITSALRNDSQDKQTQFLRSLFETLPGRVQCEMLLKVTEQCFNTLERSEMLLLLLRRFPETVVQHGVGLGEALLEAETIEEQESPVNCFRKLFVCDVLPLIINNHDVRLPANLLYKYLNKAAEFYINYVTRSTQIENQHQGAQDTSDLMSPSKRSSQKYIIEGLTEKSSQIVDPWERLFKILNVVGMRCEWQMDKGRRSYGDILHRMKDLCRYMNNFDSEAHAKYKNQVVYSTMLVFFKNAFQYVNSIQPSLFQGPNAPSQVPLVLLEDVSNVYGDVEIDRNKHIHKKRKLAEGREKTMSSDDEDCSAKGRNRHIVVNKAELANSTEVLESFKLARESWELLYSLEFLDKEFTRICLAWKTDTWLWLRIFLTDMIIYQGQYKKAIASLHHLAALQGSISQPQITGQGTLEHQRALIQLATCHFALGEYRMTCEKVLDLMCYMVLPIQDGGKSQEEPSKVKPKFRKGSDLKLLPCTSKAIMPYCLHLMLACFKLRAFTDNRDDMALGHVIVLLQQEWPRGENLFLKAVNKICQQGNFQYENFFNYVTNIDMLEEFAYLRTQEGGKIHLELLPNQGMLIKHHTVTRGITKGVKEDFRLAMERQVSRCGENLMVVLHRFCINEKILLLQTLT
UniProt Q9NQZ6: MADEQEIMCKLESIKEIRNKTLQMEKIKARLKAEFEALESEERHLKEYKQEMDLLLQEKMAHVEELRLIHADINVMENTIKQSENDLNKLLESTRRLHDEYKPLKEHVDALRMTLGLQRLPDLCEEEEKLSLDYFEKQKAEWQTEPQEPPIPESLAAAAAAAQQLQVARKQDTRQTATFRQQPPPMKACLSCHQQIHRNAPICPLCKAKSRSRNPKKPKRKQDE
UniProt Q9NVX0: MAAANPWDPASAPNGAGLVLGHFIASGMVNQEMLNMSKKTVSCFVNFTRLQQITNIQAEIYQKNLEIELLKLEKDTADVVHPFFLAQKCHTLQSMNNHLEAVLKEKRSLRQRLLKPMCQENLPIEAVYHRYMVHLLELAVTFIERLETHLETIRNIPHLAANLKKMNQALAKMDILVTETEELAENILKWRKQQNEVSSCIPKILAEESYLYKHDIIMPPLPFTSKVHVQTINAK
UniProt Q9NRA8: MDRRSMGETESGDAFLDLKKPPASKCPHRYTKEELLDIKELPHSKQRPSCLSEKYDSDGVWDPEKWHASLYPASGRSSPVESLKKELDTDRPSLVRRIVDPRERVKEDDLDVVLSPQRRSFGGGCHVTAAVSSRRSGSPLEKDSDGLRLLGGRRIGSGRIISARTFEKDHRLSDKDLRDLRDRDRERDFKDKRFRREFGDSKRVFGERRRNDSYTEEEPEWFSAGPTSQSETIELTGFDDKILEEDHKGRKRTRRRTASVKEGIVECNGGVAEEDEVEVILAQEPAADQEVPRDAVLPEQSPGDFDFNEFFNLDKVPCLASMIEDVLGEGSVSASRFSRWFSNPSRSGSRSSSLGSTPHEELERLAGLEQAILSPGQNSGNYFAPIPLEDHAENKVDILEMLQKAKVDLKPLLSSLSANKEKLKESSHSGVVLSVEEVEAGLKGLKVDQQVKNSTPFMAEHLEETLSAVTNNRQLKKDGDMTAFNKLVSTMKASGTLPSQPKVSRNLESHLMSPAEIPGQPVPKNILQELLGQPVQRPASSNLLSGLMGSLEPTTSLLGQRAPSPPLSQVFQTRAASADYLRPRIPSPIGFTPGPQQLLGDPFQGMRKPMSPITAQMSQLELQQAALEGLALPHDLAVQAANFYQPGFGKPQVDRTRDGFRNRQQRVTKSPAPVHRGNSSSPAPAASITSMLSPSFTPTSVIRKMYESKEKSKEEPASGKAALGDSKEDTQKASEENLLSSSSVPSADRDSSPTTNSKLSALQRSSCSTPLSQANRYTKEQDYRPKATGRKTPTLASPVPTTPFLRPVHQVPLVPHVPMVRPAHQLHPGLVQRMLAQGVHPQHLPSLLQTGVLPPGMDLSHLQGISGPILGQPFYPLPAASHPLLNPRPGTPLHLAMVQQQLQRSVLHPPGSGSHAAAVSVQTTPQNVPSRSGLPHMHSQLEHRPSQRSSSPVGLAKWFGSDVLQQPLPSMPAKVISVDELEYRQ
UniProt Q9NPD8: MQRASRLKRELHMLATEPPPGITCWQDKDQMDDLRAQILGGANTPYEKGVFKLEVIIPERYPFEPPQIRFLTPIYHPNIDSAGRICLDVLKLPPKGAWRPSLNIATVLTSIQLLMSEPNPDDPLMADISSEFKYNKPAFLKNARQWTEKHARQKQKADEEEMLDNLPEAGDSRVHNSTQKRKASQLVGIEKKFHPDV
UniProt Q9NQS1: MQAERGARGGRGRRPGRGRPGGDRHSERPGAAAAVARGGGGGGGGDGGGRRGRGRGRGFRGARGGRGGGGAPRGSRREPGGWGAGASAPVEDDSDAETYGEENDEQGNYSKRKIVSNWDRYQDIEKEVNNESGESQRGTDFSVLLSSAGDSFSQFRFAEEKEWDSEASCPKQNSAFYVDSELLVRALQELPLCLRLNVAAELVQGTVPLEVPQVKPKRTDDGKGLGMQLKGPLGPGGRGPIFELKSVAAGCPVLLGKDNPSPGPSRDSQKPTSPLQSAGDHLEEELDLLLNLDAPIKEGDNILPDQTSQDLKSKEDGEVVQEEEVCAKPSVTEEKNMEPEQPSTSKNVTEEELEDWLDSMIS

Compound: Cc1nc(Nc2ncc(C(=O)Nc3c(C)cccc3Cl)s2)cc(N2CCN(CCO)CC2)n1 [dasatinib]
Test: log2 fold change of tryptic peptide abundance, ligand vs vehicle (limited proteolysis) (log2 ratio); higher = more trypsin-susceptible (destabilized)
Settings: ligand concentration: 5 uM; sample: K562 cleared lysate

Row | Target | log2 fold change
1 | FARSB (peptide sequence: DLLFQALGR, peptide start residue: 9) (UniProt Q9NSD9) | -0.111
2 | NRBP2 (peptide sequence: VTEEAIAR, peptide start residue: 262) (UniProt Q9NSY0) | -0.293
3 | PPAN (peptide sequence: VQEGVGEGK, peptide start residue: 286) (UniProt Q9NQ55) | 0.268
4 | UniProt Q9NVJ2 (peptide sequence: DLPNALDEK, peptide start residue: 133) | -0.163
5 | UniProt Q9NPJ4 (peptide sequence: SQANQNYAGAK, peptide start residue: 87) | -0.0453
6 | CTPS2 (peptide sequence: LQKICSIALVGKYTK, peptide start residue: 295) (UniProt Q9NRF8) | 1.03
7 | INTS10 (peptide sequence: EKTMSSDDEDCSAKGR, peptide start residue: 377) (UniProt Q9NVR2) | -0.757
8 | ZC4H2 (peptide sequence: MAHVEELR, peptide start residue: 60) (UniProt Q9NQZ6) | 0.00763
9 | AURKAIP1 (peptide sequence: EAPEGWQTPK, peptide start residue: 184) (UniProt Q9NWT8) | -0.0666
10 | UniProt Q9NVX0 (peptide sequence: TVSCFVNFTR, peptide start residue: 40) | 0.259
11 | EIF4ENIF1 (peptide sequence: AKVDLKPLLSSLSANK, peptide start residue: 405) (UniProt Q9NRA8) | -0.389
12 | UBE2T (peptide sequence: FLTPIYHPNIDSAGR, peptide start residue: 70) (UniProt Q9NPD8) | 0.0985
13 | AVEN (peptide sequence: EVNNESGESQR, peptide start residue: 127) (UniProt Q9NQS1) | -0.321

Single values from the list:
In log2 fold change, UBE2T (peptide sequence: FLTPIYHPNIDSAGR, peptide start residue: 70) (UniProt Q9NPD8) has the entry 0.0985
In log2 fold change, CTPS2 (peptide sequence: LQKICSIALVGKYTK, peptide start residue: 295) (UniProt Q9NRF8) has the entry 1.03
